Reference: doi:10.64898/2025.12.17.694855

B1: Upf1 (protein, UniProt P30771 1-971)
chain: MVGSGSHTPYDISNSPSDVNVQPATQLNSTLVEDDDVDNQLFEEAQVTETGFRSPSASDNSCAYCGIDSAKCVIKCNSCKKWFCNTKNGTSSSHIVNHLVLSHHNVVSLHPDSDLGDTVLECYNCGRKNVFLLGFVSAKSEAVVVLLCRIPCAQTKNANWDTDQWQPLIEDRQLLSWVAEQPTEEEKLKARLITPSQISKLEAKWRSNKDATINDIDAPEEQEAIPPLLLRYQDAYEYQRSYGPLIKLEADYDKQLKESQALEHISVSWSLALNNRHLASFTLSTFESNELKVAIGDEMILWYSGMQHPDWEGRGYIVRLPNSFQDTFTLELKPSKTPPPTHLTTGFTAEFIWKGTSYDRMQDALKKFAIDKKSISGYLYYKILGHQVVDISFDVPLPKEFSIPNFAQLNSSQSNAVSHVLQRPLSLIQGPPGTGKTVTSATIVYHLSKIHKDRILVCAPSNVAVDHLAAKLRDLGLKVVRLTAKSREDVESSVSNLALHNLVGRGAKGELKNLLKLKDEVGELSASDTKRFVKLVRKTEAEILNKADVVCCTCVGAGDKRLDTKFRTVLIDESTQASEPECLIPIVKGAKQVILVGDHQQLGPVILERKAADAGLKQSLFERLISLGHVPIRLEVQYRMNPYLSEFPSNMFYEGSLQNGVTIEQRTVPNSKFPWPIRGIPMMFWANYGREEISANGTSFLNRIEAMNCERIITKLFRDGVKPEQIGVITPYEGQRAYILQYMQMNGSLDKDLYIKVEVASVDAFQGREKDYIILSCVRANEQQAIGFLRDPRRLNVGLTRAKYGLVILGNPRSLARNTLWNHLLIHFREKGCLVEGTLDNLQLCTVQLVRPQPRKTERPMNAQFNVESEMGDFPKFQDFDAQSMVSFSGQIGDFGNAFVDNTELSSYINNEYWNFENFKSAFSQKQNRNEIDDRNLYQEEASHLNSNFARELQREEQKHELSKDFSNLGI
B2: Pby1 (protein, UniProt P38254 1-753)
chain: MRVLITNDDGPLSDQFSPYIRPFIQHIKRNYPEWKITVCVPHVQKSWVGKAHLAGKNLTAQFIYSKVDAEDNTFWGPFIQPQIRSENSKLPYVLNAEIPKDTIEWILIDGTPASCANIGLHLLSNEPFDLVLSGPNVGRNTSAAYITSSGTVGGAMESVITGNTKAIAISWAYFNGLKNVSPLLMEKASKRSLDVIKHLVKNWDPKTDLYSINIPLVESLSDDTKVYYAPIWENRWIPIFNGPHINLENSFAEIEDGNESSSISFNWAPKFGAHKDSIHYMDEYKDRTVLTDAEVIESEMISVTPMKATFKGVNHLLGELKLTEEENNLSKTNNLIVVSIDPMEYIYKPLTHALKKYLPQVEIVSNLPEFDNGGCEKEMKVFHYGDYEQLDMDKLMELPNNYFTNSYIYRKALIRKHFLSHTIQTYTAKNPESILKKAYLESFTIDLDYAEFLDDALDENWELRQELENESQDKWWIVKPSMSDKGQGIRVFKTIEDLQAIFDSFDDEDSEAEESGNDDDADDVNGEFMDNNKVNISQLRHFIIQEYLTNPLLLASMDNRKFHIRCYVVCRGDLQVFVYDRMLALFAAKPFVPLDPYAYSVTDLKDLECHLTNTCLQSKKKDKDSSVLEFDSIEEIPNERKSNIKEQIHSITNDVFLAAVNVNRLNFQPLPNAFETYGVDFLIDSNYEVKLLEINAFPDFKQTGKDLKNLIDELFDDTVKYCVTPIFNENRNKTDDETDPNFVKVIDYTSNGW
B3: Lsm2 (protein, UniProt P38203 1-95)
chain: MLFFSFFKTLVDQEVVVELKNDIEIKGTLQSVDQFLNLKLDNISCTDEKKYPHLGSVRNIFIRGSTVRYVYLNKNMVDTNLLQDATRREVMTERK
B4: Lsm4 (protein, UniProt P40070 1-187)
chain: MLPLYLLTNAKGQQMQIELKNGEIIQGILTNVDNWMNLTLSNVTEYSEESAINSEDNAESSKAVKLNEIYIRGTFIKFIKLQDNIIDKVKQQINSNNNSNSNGPGHKRYYNNRDSNNNRGNYNRRNNNNGNSNRRPYSQNRQYNNSNSSNINNSINSINSNNQNMNNGLGGSVQHHFNSSSPQKVEF
B5: Lsm5 (protein, UniProt P40089 1-93)
chain: MSLPEILPLEVIDKTINQKVLIVLQSNREFEGTLVGFDDFVNVILEDAVEWLIDPEDESRNEKVMQHHGRMLLSGNNIAILVPGGKKTPTEAL
B6: Lsm3 (protein, UniProt P57743 1-89)
chain: METPLDLLKLNLDERVYIKLRGARTLVGTLQAFDSHCNIVLSDAVETIYQLNNEELSESERRCEMVFIRGDTVTLISTPSEDDDGAVEI
B7: Pat1 (protein, UniProt P25644 1-796)
chain: MSFFGLENSGNARDGPLDFEESYKGYGEHELEENDYLNDETFGDNVQVGTDFDFGNPHSSGSSGNAIGGNGVGATARSYVAATAEGISGPRTDGTAAAGPLDLKPMESLWSTAPPPAMAPSPQSTMAPAPAPQQMAPLQPILSMQDLERQQRQMQQQFMNFHAMGHPQGLPQGPPQQQFPMQPASGQPGPSQFAPPPPPPGVNVNMNQMPMGPVQVPVQASPSPIGMSNTPSPGPVVGATKMPLQSGRRSKRDLSPEEQRRLQIRHAKVEKILKYSGLMTPRDKDFITRYQLSQIVTEDPYNEDFYFQVYKIIQRGGITSESNKGLIARAYLEHSGHRLGGRYKRTDIALQRMQSQVEKAVTVAKERPSKLKDQQAAAGNSSQDNKQANTVLGKISSTLNSKNPRRQLQIPRQQPSDPDALKDVTDSLTNVDLASSGSSSTGSSAAAVASKQRRRSSYAFNNGNGATNLNKSGGKKFILELIETVYEEILDLEANLRNGQQTDSTAMWEALHIDDSSYDVNPFISMLSFDKGIKIMPRIFNFLDKQQKLKILQKIFNELSHLQIIILSSYKTTPKPTLTQLKKVDLFQMIILKIIVSFLSNNSNFIEIMGLLLQLIRNNNVSFLTTSKIGLNLITILISRAALIKQDSSRSNILSSPEISTWNEIYDKLFTSLESKIQLIFPPREYNDHIMRLQNDKFMDEAYIWQFLASLALSGKLNHQRIIIDEVRDEIFATINEAETLQKKEKELSVLPQRSQELDTELKSIIYNKEKLYQDLNLFLNVMGLVYRDGEISELK
B8: Lsm6 (protein, UniProt Q06406 1-86)
chain: MSGKASTEGSVTTEFLSDIIGKTVNVKLASGLLYSGRLESIDGFMNVALSSATEHYESNNNKLLNKFNSDVFLRGTQVMYISEQKI

Molecular target: T1, Dcp1-TAP (S. cerevisiae) (UniProt Q12517)
T1 sequence: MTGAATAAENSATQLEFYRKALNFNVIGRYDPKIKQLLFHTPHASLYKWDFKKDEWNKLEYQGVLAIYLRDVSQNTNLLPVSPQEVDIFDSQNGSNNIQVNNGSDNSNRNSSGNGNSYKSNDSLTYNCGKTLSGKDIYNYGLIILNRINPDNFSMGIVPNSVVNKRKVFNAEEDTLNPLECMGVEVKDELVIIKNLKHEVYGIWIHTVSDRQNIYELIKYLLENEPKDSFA
Assay: affinity purification with mass spectrometry

binding, binds:
B1, B2, B3, B4, B5

Molecular target: T2, Lsm1-TAP (S. cerevisiae) (UniProt P47017)
T2 sequence: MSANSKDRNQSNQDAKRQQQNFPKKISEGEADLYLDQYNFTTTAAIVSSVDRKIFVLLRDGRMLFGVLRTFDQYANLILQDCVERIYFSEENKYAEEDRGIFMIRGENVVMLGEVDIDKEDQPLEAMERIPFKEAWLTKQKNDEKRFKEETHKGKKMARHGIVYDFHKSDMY
Assay: affinity purification with mass spectrometry

binding, binds:
B1, B2, B3, B4, B5, B6, B7, B8

Results are given in words; binding and its absence hold for the method and conditions named. Binding seen in cells or lysates may run through a third protein. A yes stands for co-enrichment or nearness to the bait. Other partners may have been found.
